These are yes or no findings as the source states them, for the method shown. Binding seen in cells or lysates may run through a third protein. Some binding calls cover weakened binding; strength is not graded here. For part of these data: Where a sequence is shown, tags or fusion partners need not be part of it.
Tests used:
[1] = molecular target: Spc24-6His-3FLAG (S. cerevisiae) (UniProt Q04477); experiment: co-IP; one-step anti-Flag immunoprecipitation of Spc24-His-Flag from yeast lysate, Buffer H with 250 mM KCl throughout (Figs 5A and 5B), 4 °C, 3 hours; immunoblot; cells arrested in metaphase (cdc20-AID) or anaphase (cdc15-2) at 37 °C
[2] = molecular target: T1, Dsn1-6His-3FLAG (S. cerevisiae) (UniProt P40568); experiment: co-IP; one-step anti-Flag (M3DK antibody on Protein G Dynabeads) immunoprecipitation of the 3Flag-tagged bait from yeast lysate, Buffer H with 150 mM KCl, 4 °C, 3 hours; co-purifying proteins by immunoblot; cells asynchronous or arrested (cdc20-AID, cdc15-2, ndc10-1, nocodazole, kar3-AID)
T1 sequence: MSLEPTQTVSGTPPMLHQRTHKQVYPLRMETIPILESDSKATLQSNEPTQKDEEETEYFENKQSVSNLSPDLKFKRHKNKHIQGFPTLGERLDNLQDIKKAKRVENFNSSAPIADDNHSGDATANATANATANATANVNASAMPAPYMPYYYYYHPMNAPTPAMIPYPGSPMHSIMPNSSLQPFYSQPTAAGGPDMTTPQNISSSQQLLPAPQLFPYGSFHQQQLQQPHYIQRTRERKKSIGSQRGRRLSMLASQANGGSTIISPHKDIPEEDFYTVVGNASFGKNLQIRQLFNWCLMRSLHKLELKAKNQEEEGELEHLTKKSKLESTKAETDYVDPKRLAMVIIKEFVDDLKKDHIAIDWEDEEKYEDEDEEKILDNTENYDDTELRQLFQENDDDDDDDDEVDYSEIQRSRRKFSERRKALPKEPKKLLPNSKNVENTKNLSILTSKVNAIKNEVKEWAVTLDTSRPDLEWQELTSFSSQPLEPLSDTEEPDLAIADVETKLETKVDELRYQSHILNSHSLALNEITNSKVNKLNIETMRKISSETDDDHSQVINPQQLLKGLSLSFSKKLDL

Chains of the proteins cited; added tags and fusions are not shown. Lines headed by an entry give the natural chain unless they say otherwise; changes in a name come on top.
UniProt Q04477: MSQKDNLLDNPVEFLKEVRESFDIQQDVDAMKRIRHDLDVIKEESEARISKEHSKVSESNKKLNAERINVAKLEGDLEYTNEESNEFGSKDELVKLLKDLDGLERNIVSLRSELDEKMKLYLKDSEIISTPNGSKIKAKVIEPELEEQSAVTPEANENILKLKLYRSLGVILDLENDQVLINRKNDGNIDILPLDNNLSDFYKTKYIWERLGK
UniProt P40460: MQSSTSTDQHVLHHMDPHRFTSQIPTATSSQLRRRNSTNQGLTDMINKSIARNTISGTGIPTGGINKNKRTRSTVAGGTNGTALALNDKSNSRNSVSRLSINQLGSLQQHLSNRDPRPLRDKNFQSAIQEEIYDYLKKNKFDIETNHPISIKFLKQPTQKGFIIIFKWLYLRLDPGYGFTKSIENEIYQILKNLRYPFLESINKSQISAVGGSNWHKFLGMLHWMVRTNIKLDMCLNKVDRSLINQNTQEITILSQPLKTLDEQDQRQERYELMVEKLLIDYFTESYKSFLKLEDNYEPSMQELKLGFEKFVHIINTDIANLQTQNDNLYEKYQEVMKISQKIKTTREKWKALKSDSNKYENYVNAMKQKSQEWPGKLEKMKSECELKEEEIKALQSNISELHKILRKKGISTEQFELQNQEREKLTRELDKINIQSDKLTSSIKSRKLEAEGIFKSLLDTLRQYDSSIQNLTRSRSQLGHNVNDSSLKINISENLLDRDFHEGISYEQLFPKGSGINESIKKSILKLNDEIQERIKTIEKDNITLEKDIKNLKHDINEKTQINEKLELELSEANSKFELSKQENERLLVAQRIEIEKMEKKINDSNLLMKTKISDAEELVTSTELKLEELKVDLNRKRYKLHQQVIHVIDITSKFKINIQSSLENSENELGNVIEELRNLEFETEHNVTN

[3] = molecular target: Spc24-6His-3FLAG (S. cerevisiae) (UniProt Q04477); experiment: as above
[4] = molecular target: Ndc80-3FLAG (S. cerevisiae) (UniProt P40460); experiment: as above
[5] = molecular target: Ndc80 (wild type) (S. cerevisiae) (UniProt P40460); experiment: co-IP; one-step anti-Flag immunoprecipitation of Spc24-His-Flag from yeast lysate, Buffer H with 250 mM KCl throughout (Figs 5A and 5B), 4 °C, 3 hours; immunoblot; cells arrested in metaphase (cdc20-AID) or anaphase (cdc15-2) at 37 °C
[6] = molecular target: Ndc80-T248A-T252A (S. cerevisiae) (UniProt P40460); experiment: as above
[7] = molecular target: Ndc80-T248D-T252D (S. cerevisiae) (UniProt P40460); experiment: as above
[8] = molecular target: Spc24-6His-3FLAG (S. cerevisiae) (UniProt Q04477); experiment: as above; remark: listed apart in the source
[9] = molecular target: Ndc80 (wild type) (S. cerevisiae) (UniProt P40460); experiment: co-IP; one-step anti-Flag (M3DK antibody on Protein G Dynabeads) immunoprecipitation of the 3Flag-tagged bait from yeast lysate, Buffer H with 150 mM KCl, 4 °C, 3 hours; co-purifying proteins by immunoblot; cells asynchronous or arrested (cdc20-AID, cdc15-2, ndc10-1, nocodazole, kar3-AID)
[10] = molecular target: Ndc80-T248D-T252D (S. cerevisiae) (UniProt P40460); experiment: as above
[11] = molecular target: Spc24-6His-3FLAG (S. cerevisiae) (UniProt Q04477); experiment: as above; remark: listed apart in the source

Measured: binding

Ndc80 (wild type) (from UniProt P40460 1-691)
binds: [1] | [2] | [3]

Spc24 (from UniProt Q04477 1-213)
binds: [4]

Ndc80-T248A-T252A (from UniProt P40460 1-691)
binds: [1] | [3]

Ndc80-T248D-T252D (from UniProt P40460 1-691)
binds: [1] | [3]

B1: Ask1 (protein, UniProt P35734 1-292)
chain: MDSASKEETLEKLDQEITVNLQKIDSNLSFCFHKITQDIIPHVATYSEICERIMDSTEWLGTMFQETGLVNLQANAAAPVGNAPVKSLVSNNVGIFPTSAEEASRQSQTDNGPNEADSAVHVNRDVHSMFNNDSIDDFHTANITSTGQILKLPDSSDEDTGSEAVPSREQTDLTGEGHGGADDEQDESTIQRQSRKRKISLLLQQQYGSSSSMVPSPIVPNKMRKQLAHEEHINNDGDNDDENSNNIESSPLKQGHHHPKGQADDNNEGPDEEESTKEVPKPGTIIHFSTNR
not listed: [1] | [2] | [3] | [4]
binds: all other assays above

— PMC12007717
